Reference: article PMC9440176, “Novel benzylidene benzofuranone analogues as potential anticancer agents: design, synthesis and in vitro evaluation based on CDK2 inhibition assays” (3 Biotech, 2022)

How the values were obtained:
[1] = tested on: Cyclin A gene expression in HCT 116 cell lines; test: Semi-quantitative RT-PCR gene expression of Cyclin A; assay type: cell-based, Human; conditions: internal control, Table 9
Description: (§1) HCT-116 cells were trypsinized and added to 1 ml TRIzol and vortexed. Samples were then allowed to stand for 5 min at room temperature. 0.2 ml of chloroform per 1 ml of TRIzol was added. The tube was later stoppered and shaken vigorously for 15 s and was allowed to stand at room temperature for 5 min. The resulting mixture was then centrifuged at 10,000×rpm for 15 min at […]. The upper aqueous phase was transferred to another clean tube followed by the addition of 0.5 ml of isopropanol per 1 ml of TRIzol. The contents were mixed gently by inverting the sample 5 times and incubated at room temperature for 5 min. Further, the tubes were centrifuged at 10,000×rpm for the next 10 min at 40 °C. […]
(§2) A semi-quantitative reverse transcriptase polymerase chain reaction (RT-PCR) was carried out using Techno Prime system to determine the levels of β-actin and CDK-2 and CyclinA mRNA expression. […]
(§3) The PCR mixture (final volume of 20 µL) contains 1 µL of cDNA, 10 µL of Red Taq Master Mix 2× (Ampliqon) and 1 µM of each complementary primer specific for CDK2 and CyclinA and β-actin (internal control) sequence. […] Quantification of the results could be accomplished by measuring the optical density of the bands, using the computerized imaging program Image J. The values were normalized to β-actin intensity levels (Bookout and Mangelsdorf [2003]).

[2] = tested on: CDK2 gene expression in HCT 116 cell lines; test: Semi-quantitative RT-PCR gene expression of CDK2; assay type: cell-based, Human; conditions: internal control, Table 8
Description: as §1, §2, §3

COc1ccc(/C=C2\Oc3c(c(OC)cc(OC)c3C3=CCN(C(C)C)CC3)C2=O)cc1OC [NISOA4]
Band intensity Of PCR Amplicon Of genes, β-Actin ([1]; 12.5 μM): 25,501.76 | Band intensity Of PCR Amplicon Of genes, β-Actin ([1]; 25 μM): 25,292.08 | Band intensity of PCR amplicon of genes, β-Actin ([2]; 12.5 μM): 25,501.761 | Band intensity of PCR amplicon of genes, β-Actin ([2]; 25 μM): 25,292.075
